{
  "sequences": {"note": "By UniProt entry, the sequences of proteins in these tests, tags left out. Where a name states a change or a piece, a line headed by the entry shows the natural chain unless it says otherwise.", "UniProt Q7LZK8": "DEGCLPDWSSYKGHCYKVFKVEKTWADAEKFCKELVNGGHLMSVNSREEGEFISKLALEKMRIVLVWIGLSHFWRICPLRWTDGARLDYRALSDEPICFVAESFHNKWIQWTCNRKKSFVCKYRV", "UniProt Q7LZK5": "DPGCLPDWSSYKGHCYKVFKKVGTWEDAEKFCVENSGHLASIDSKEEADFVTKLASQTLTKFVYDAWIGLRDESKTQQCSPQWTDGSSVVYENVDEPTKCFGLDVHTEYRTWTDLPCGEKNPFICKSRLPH"},
  "source": "paper PMC9024624",
  "molecular_target": "bitiscetin-1 β subunit (Bitis arietans) (UniProt Q7LZK8)",
  "test": "SDS-PAGE under non-reducing and reducing conditions; purified protein run unreduced (~25 kDa) and reduced (two bands); for rBit-3 N-terminal sequencing of the two reduced bands; subunits joined in the producing cells",
  "note": "No constants are given. Whether binding was seen depends on the method and setting. Binding calls can cover weak binding; strength is not graded here.",
  "data": [
    {"substance": "bitiscetin-1 α subunit (from UniProt Q7LZK5)", "values": [
      {"measurement": "binding", "value": "binds"}
    ]}
  ]
}
